Assay results taken from PMC4210131.
Results are given in words; binding and its absence hold for the method and conditions named. In cells and extracts the contact can be indirect. Some results given as binding are weak or reduced against the parent protein; the word gives no strength. For some assays here: Where a sequence is shown, tags or fusion partners need not be part of it.

The chains behind the UniProt entries cited, without tags or fusion partners.
UniProt P03165: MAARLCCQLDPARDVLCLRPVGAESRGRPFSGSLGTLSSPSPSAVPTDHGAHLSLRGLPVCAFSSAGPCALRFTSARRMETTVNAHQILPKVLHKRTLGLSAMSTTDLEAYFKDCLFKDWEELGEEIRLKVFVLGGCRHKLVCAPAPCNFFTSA

How the values were obtained:
[1] = biological target: T1, USP37 (endogenous, Huh7) (human (endogenous in Huh7)) (UniProt Q86T82); assay: co-IP; USP37 immunoprecipitated from lysate of Huh7 cells transfected with vector or HA-HBx; blotted with USP37 and HBx antibody
T1 sequence: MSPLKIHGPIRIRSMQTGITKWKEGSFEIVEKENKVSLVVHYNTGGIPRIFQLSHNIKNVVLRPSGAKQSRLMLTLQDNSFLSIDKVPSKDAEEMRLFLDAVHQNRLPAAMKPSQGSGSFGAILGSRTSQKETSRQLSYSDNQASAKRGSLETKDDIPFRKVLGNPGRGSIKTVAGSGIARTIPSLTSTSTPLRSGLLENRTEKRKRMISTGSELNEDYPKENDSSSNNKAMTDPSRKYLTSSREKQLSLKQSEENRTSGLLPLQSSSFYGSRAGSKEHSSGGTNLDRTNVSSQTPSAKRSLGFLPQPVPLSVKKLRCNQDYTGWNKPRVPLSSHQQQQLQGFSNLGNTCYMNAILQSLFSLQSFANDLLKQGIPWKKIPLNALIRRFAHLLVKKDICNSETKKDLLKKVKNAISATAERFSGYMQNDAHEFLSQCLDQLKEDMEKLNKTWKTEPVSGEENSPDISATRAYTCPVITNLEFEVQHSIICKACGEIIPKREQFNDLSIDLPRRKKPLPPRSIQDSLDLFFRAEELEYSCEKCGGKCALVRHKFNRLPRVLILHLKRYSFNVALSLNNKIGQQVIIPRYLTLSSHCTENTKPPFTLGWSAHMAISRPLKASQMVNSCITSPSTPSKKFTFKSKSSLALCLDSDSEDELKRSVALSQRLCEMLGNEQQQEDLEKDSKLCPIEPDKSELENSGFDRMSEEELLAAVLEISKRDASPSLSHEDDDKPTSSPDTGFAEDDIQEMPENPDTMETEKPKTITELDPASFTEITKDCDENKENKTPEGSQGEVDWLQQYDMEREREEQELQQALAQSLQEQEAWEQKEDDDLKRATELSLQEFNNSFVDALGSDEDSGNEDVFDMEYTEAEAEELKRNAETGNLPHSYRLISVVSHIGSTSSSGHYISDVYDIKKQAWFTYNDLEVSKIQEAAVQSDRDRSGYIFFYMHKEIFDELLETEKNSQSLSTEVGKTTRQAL

Flag-USP37 = biological target: T2, Flag-USP37 (UniProt Q86T82); assay: co-IP; cells co-transfected with Flag-USP37 and HBx; HBx co-precipitated by Flag-tagged USP37
T2 sequence: T1 sequence

Substance	binding [1]	binding (Flag-USP37)
HA-HBx (from UniProt P03165 1-154)	binds	
HBx (co-transfected with Flag-USP37, construct not named) (from UniProt P03165 1-154)		binds
